## Screening data, single-dose tests

Protein sequences, listed by entry. Tags and fused reporters are not part of them.
UniProt P9WFT3, whole entry: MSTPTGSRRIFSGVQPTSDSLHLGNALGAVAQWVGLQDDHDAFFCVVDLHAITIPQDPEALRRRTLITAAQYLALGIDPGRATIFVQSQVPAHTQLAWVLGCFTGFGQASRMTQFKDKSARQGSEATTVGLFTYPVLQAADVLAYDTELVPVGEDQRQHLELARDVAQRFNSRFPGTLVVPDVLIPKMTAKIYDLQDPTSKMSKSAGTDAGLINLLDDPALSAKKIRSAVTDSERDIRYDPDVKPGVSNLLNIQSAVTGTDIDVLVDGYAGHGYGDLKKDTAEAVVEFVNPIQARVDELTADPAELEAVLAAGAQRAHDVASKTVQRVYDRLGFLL

From ChEMBL document CHEMBL3988442, “University of Dundee, Small-Polar-MMV Screening Library” (2021).

Values are the deposited “Percent Effect”, in %. How 0% and 100% were set is not recorded. Most values in the screen are low, and negative values occur. The compounds are a random part of those screened.

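Enzyme assay of tryptophanyl-tRNA synthetase; the read-out is not stated. Target: Tryptophan-tRNA ligase, Mycobacterium tuberculosis (UniProt P9WFT3). Concentration: 10 µM. Direction is not recorded; retested compounds ran higher, which suggests that high means inhibition. Of about 65,000 compounds tested this way, about 64 (0.098%) reached 50% or more in at least one test.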

With CC(C)Cc1noc(CN2CCN(c3nccs3)CC2)n1 the screen gave -1.839%. O=C(c1cccc(Cl)c1)N1CCCn2c(CN3CCCCC3)nnc2C1 read 1.586%. CCc1cc(C(=O)N2CCCC2c2nc(C)c(F)c(O)n2)on1 (stereo not shown) gave 1.083%. For CNC(=O)Cc1ccccc1NC(=O)C1CCN(C2CCCCC2)C1 (stereo not shown) the result was 2.374%. CC(Cc1ccco1)NC(=O)Nc1ccc(N2CCOCC2)nc1 (stereo not shown) read 7.704%.

With CN(C)CC1COCCN1C(=O)C1(c2cccs2)CCCC1 (stereo not shown) the screen gave -2.603%. CN1CC2(CCN(C(=O)Cn3ncc4ccccc4c3=O)CC2)OC1=O gave -1.125%. Cc1cccc(N2CCc3ncc(CNc4ccccn4)n3CC2)n1 read -6.08%. With COc1cc(C2C3=C(COC3=O)Nc3[nH]nc(C)c32)cc2c1OCO2 (stereo not shown) the screen gave -3.65%. CN(Cc1ccccc1C#N)C1CCN(CCc2ccccn2)CC1 gave -8.796%.

For O=C(Nc1ccccc1)C1CN(Cc2ccsc2)CC12CCOCC2 (stereo not shown) the result was -2.811%. O=C(Cc1cccc(F)c1F)N1CCOC(c2cccc(O)c2)C1 (stereo not shown) read -0.9082%. With CN(C)C(=O)c1cnn2c1OCCC2 the screen gave 2.348%. CN(C)c1ccc(NC(=O)NCc2cccnc2N(C)C)cn1 gave -3.771%. For Cc1sc(Br)cc1S(=O)(=O)NCCCN the result was -1.321%.

Result for Cn1c(C2CC2)nc2c1CCN(CCOc1cccc(F)c1)C2 was 8.047%. With COC[C@H]1CCC[C@]12CN(C(=O)NCc1ccccc1)CCO2 the screen gave 4.02%. With Cc1nccc(N2CCN(C3CCOCC3)CC(C(=O)N(C)C)C2)n1 (stereo not shown) the screen gave -1.057%. CC(C)(C)OC(=O)NCC1CCN(C(=O)c2ccc(F)cc2F)C1 (stereo not shown) gave 3.186%. Result for Cc1noc(C)c1NC(=O)NC1CCN(C(=O)OC(C)(C)C)CC1 was -3.398%.

Result for O=C(CCn1cncn1)NCC1CCS(=O)(=O)C1 (stereo not shown) was -6.708%. COc1ccc2[nH]cc(C3CCN(CCC(N)=O)CC3)c2c1 read -3.052%. For COc1cccc(CNCc2nnc3n2CC(C(F)(F)F)CC3)c1 (stereo not shown) the result was 2.179%. With CCC(Nc1nccc(C2CCCC2)n1)c1ncccc1C (stereo not shown) the screen gave 1.784%. Result for O=C(NC1CC(=O)N(C2Cc3ccccc3C2)C1)c1cnccn1 (stereo not shown) was -7.216%.

For N#CCCN(C(=O)CN1CCCC1c1ccsc1)c1ccccc1 (stereo not shown) the result was 14.32%. Cc1nc(CN2CCN(C(=O)c3ccc(=O)n(C)c3)CC2)cs1 gave -7.597%. For CC(=O)Nc1nc(C2CN(C(=O)C3CCC3)C2)cs1 the result was -1.882%. Result for CCN(C(=O)c1ccc2nncn2c1)C(C)Cc1ccc(OC)cc1 (stereo not shown) was -3.028%. CCC(C)NC(=O)c1ccc(CNC(=O)CC(C)(C)C)cc1 (stereo not shown) read 2.812%.

N#Cc1ccc(SCCC(=O)Nc2ccc(CC(N)=O)cc2)cc1 gave -2.878%. For Cc1nc(NC(=O)COCC(F)(F)F)ccc1Br the result was -0.8596%. CCCS(=O)(=O)N1CCN(CCOC)c2nc(C)ccc2C1 read 0.549%. CCc1cnc(CN(C)C(=O)Nc2cnn(CC3CCCO3)c2)s1 (stereo not shown) gave 3.072%.

For reference, 4 entries once more:

| Compound | Percent Effect |
|---|---|
| `CCC(C)NC(=O)c1ccc(CNC(=O)CC(C)(C)C)cc1` (stereo not shown) | 2.812% |
| `Cc1noc(C)c1NC(=O)NC1CCN(C(=O)OC(C)(C)C)CC1` | -3.398% |
| `Cc1nc(NC(=O)COCC(F)(F)F)ccc1Br` | -0.8596% |
| `O=C(c1cccc(Cl)c1)N1CCCn2c(CN3CCCCC3)nnc2C1` | 1.586% |